Data taken from the supplement of paper PMC7024190.
Counter-ions that a name gives are not always drawn. This is one part of the list. Single values are uncertain here, since repeats match poorly.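 A first-round screen of about ten thousand compounds sought those raising reporter output, using human embryonic kidney cells briefly transfected with a plasmid carrying a Renilla luciferase gene driven by the HSV-TK promoter.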

The compounds below were run on HEK 293FT (assay: log relative Renilla luciferase luminescence (reporter expression vs reference, reference not stated) (log (base not stated)); higher = higher recombinant reporter expression). Details: 10 µM; time after transfection 48 h.

| SMILES | log |
| --- | --- |
| CC(=O)N1CC[N+](C)(C)CC1 [4-Acetyl-1,1-dimethylpiperazinium iodide] | 0.117 |
| CCCOc1ccc2[nH]cc(C3=CCNCC3)c2n1 | -0.0996 |
| O=C(O)C1=CCCN(CCOC(c2ccc(C(F)(F)F)cc2)c2ccc(C(F)(F)F)cc2)C1 [CI 966 hydrochloride] | -0.0231 |
| CCC1(C2=NCCN2)Cc2ccccc2O1 (centres undefined) [Efaroxan hydrochloride] | 0.0438 |
| O=c1[nH]oc2c1CCNC2 [THIP hydrochloride] | 0.0505 |
| O=C(O)/C=C/CO [trans-4-Hydroxycrotonic acid] | -0.0209 |
| S=C=Nc1cccc(C2(N3CCCCC3)CCCCC2)c1 [Metaphit] | 0.146 |
| CC(C)C[C@@H](N)C1(c2ccc(Cl)cc2)CCC1 | -0.096 |
| Oc1ccc2c3c1O[C@H]1c4[nH]c5c(c4C[C@@]4(O)[C@@H](C2)N(CC2CC2)CC[C@]314)C[C@@]1(O)[C@H]2Cc3ccc(O)c4c3[C@@]1(CCN2CC1CC1)[C@H]5O4 [nor-Binaltorphimine dihydrochloride] | -0.00758 |
| CN(C(=O)Cc1ccccc1)C(CN1CCCC1)c1ccccc1 (centres undefined) [N-MPPP Hydrochloride] | 0.0845 |
| N=C(NCc1ccc(Cl)cc1)SCCCc1c[nH]cn1 [Clobenpropit dihydrobromide] | 0.0199 |
| O=C1NCN(c2ccccc2)C12CCN(CC1COc3ccccc3O1)CC2 (centres undefined) [Spiroxatrine] | 0.0389 |
| COC(=O)/C=C/C(=O)N[C@@H]1CC[C@@]2(O)[C@H]3Cc4ccc(O)c5c4[C@@]2(CCN3CC2CC2)[C@H]1O5 [β-Funaltrexamine hydrochloride] | -0.111 |
| COc1ccc(C(=O)c2c(C)n(CCN3CCOCC3)c3cc(I)ccc23)cc1 | 0.0801 |
| Cc1onc(O)c1C[C@H](N)C(=O)O | -0.00324 |
| O=C(CCCN1CCC2(CC1)C(=O)NCN2c1ccccc1)c1ccc(F)cc1 [Spiperone hydrochloride] | -0.0476 |
| O=C1Nc2ccccc2C2(CCN(CCc3ccc(C(F)(F)F)cc3)CC2)O1 | -0.206 |
| O=C1CSC(c2ccccc2Cl)c2cc(Cl)ccc2N1 (centres undefined) | 0.143 |
| C[C@@]12C(=O)OC(=O)[C@]1(C)[C@H]1CC[C@@H]2O1 [Cantharidin] | 0.165 |
| Fc1ccc(C(OCCN2CCN(CCCc3ccccc3)CC2)c2ccc(F)cc2)cc1 | 0.0801 |

| SMILES | log |
| --- | --- |
| CCCN[C@@H]1CCc2c(OC)cccc2[C@@H]1C [(+)-AJ 76 hydrochloride] | 0.128 |
| CC(N)Cc1c[nH]c2ccc(O)cc12 (stereo not drawn) [α-Methyl-5-hydroxytryptamine maleate] | 0.0399 |
| CN1C2CCC1CC(OC(c1ccccc1)c1ccc(Cl)cc1)C2 (centres undefined) | 0.00426 |
| C=CCN1CC[C@]23c4c5ccc(O)c4O[C@H]2C(=O)CC[C@@]3(O)[C@H]1C5 [Naloxone hydrochloride] | 0.0534 |
| C[C@H](N)Cc1cnc[nH]1 [(S)-(+)-a-Methylhistamine dihydrobromide] | 0.00743 |
| CC(C)C[C@H]1C(=O)N2CCC[C@H]2[C@]2(O)O[C@](NC(=O)[C@@H]3C=C4c5cccc6[nH]c(Br)c(c56)C[C@H]4N(C)C3)(C(C)C)C(=O)N12 [Bromocriptine mesylate] | 0.031 |
| CCCCCCC[n+]1ccc(-c2cc[n+](CCCCCCC)cc2)cc1 [DHBP dibromide] | -0.168 |
| Cc1[nH]c2ccc(O)cc2c1CCN [2-Methyl-5-hydroxytryptamine hydrochloride] | -0.00649 |
| CN1[C@@H]2CC[C@H]1C[C@@H](OC(=O)c1cc(Cl)cc(Cl)c1)C2 | -0.0109 |
| BrC1C(Br)C(Br)C(Br)C(Br)C1Br (centres undefined) [1,2,3,4,5,6-Hexabromocyclohexane] | -0.0455 |
| Cc1onc(O)c1CC(N)C(=O)O (racemic) | 0.13 |
| N#Cc1ccc(N2CCN(C(=O)COc3ccc4[nH]cc(CCN)c4c3)CC2)cc1 [Donitriptan hydrochloride] | 0.0738 |
| CC(C(=O)OC1CC2CCC(C1)N2C)c1ccc(Br)cc1 (centres undefined) [PG-9 maleate] | -0.00216 |
| N=C(N)NN [Aminoguanidine hydrochloride] | 0.0168 |
| FC(F)(F)c1cccc(C2=CCN(CCc3ccc4ccccc4c3)CC2)c1 [Xaliproden hydrochloride] | -0.247 |
| NC(=S)N/N=C/c1coc2ccccc2c1=O.[Cl][Cu][Cl] | -0.0423 |
| CN1[C@@H]2CC[C@H]1C[C@@H](OC(c1ccc(F)cc1)c1ccc(F)cc1)C2 [3 α-Bis-(4-fluorophenyl) methoxytropane hydrochloride] | -0.0131 |
| O=C(Cc1ccc(Cl)c(Cl)c1)N1CCCCC1CN1CCCC1 (centres undefined) | -0.0524 |
| S=C(NC1CCCCC1)N1CCC(c2cnc[nH]2)CC1 [Thioperamide] | -0.0209 |

Random excerpt: three compounds from above.

| SMILES | log |
| --- | --- |
| O=C(Cc1ccc(Cl)c(Cl)c1)N1CCCCC1CN1CCCC1 (centres undefined) | -0.0524 |
| CN1C2CCC1CC(OC(c1ccccc1)c1ccc(Cl)cc1)C2 (centres undefined) | 0.00426 |
| CN1[C@@H]2CC[C@H]1C[C@@H](OC(c1ccc(F)cc1)c1ccc(F)cc1)C2 [3 α-Bis-(4-fluorophenyl) methoxytropane hydrochloride] | -0.0131 |
